No constants are given. Whether binding was seen depends on the method and setting. Binding seen in cells or lysates may run through a third protein. Some binding calls cover weakened binding; strength is not graded here. For some of these results: Tags and fused reporters may be left off the sequences shown. Blank lines part the entries; values can stand above or below the molecule they belong to.
Experiments:
[1] = biological target: T1, VRK1-HA (human VRK1, transfected) (human) (UniProt Q99986); experiment: co-IP; A549 cells transfected with Tip60-V5 and VRK1-HA; reciprocal immunoprecipitations from lysate (50 mM Tris-HCl pH 8.0, 1 mM EDTA, 150 mM NaCl, 1% triton X-100); immunoblot
T1 sequence: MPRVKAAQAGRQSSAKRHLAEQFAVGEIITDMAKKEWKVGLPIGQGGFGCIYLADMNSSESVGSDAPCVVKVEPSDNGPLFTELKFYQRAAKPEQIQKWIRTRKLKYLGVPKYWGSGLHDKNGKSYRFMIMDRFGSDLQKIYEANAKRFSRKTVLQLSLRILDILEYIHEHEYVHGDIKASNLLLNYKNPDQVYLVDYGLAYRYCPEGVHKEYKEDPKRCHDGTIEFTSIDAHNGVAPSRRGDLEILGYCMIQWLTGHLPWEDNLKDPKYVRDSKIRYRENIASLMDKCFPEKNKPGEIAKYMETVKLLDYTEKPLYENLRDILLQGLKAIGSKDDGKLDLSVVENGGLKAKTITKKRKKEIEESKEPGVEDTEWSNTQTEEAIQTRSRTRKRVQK

Sequences of proteins named here, by UniProt entry; tags and fusion partners are left off.
UniProt Q92993: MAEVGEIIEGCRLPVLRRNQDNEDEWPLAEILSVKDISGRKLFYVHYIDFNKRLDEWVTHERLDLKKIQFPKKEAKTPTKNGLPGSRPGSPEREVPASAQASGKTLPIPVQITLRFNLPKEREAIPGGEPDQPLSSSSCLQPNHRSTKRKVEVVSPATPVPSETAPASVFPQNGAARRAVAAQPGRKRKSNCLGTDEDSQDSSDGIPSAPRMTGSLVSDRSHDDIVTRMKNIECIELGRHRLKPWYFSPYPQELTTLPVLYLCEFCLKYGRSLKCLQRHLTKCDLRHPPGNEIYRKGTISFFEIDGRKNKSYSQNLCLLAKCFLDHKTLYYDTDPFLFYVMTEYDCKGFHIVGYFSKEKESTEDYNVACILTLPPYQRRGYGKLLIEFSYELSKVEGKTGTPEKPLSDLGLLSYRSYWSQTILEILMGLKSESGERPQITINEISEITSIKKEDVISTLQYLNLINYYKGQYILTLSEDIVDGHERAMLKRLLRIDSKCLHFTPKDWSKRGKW

[2] = biological target: Tip60-V5 (human Tip60, transfected) (human) (UniProt Q92993); experiment: as above
[3] = biological target: Tip60-V5 (human Tip60, transfected) (human) (UniProt Q92993); experiment: co-IP; A549 cells transfected with Tip60-V5, 0.5% serum for 48 h, doxorubicin time course; Tip60 immunoprecipitated, endogenous VRK1 detected by immunoblot
[4] = biological target: endogenous Tip60 (human (endogenous in A549)) (UniProt Q92993); experiment: co-IP; endogenous Tip60 immunoprecipitated with an anti-Tip60 antibody (ab137518), endogenous VRK1 detected by immunoblot; cells with or without doxorubicin

binding [1]: binds
Molecule: Tip60-V5 (human Tip60, transfected) (from UniProt Q92993 1-513) (enzyme)

binding [2]: binds
B1: VRK1-HA (human VRK1, transfected) (enzyme, UniProt Q99986 1-396)
chain: T1 sequence

binding [3]: binds | binding [4]: binds
B2: endogenous VRK1 (enzyme, UniProt Q99986 1-396)
chain: T1 sequence

Source: publication PMC7650776
